Results taken from article PMC7532498.
Results are given in words; binding and its absence hold for the method and conditions named. Binding seen in cells or lysates may run through a third protein. Some entries that bind do so weakly or less than the wild type. Where a sequence is shown, tags or fusion partners need not be part of it.

Biological target: T1, CXXC finger protein 4 (CXXC4) with 3XFlag, from GV141-CXXC4-3XFlag (UniProt Q9H2H0)
T1 sequence: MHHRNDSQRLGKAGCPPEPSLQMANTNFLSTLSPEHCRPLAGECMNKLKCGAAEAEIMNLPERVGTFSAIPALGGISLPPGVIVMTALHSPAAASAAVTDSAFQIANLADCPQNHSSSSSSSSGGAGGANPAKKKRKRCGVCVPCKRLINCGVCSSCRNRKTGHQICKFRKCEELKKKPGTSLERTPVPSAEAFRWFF
Test: co-IP; HCCLM3 cells (2 x 10^6) lysed in Tris-HCl pH 7.5, 150 mM NaCl, 1% Nonidet P-40, 10% glycerol; pre-cleared lysates with anti-flag or anti-Dvl-1 antibodies overnight at 4°C, protein A/G agarose 2 h; rabbit IgG as control; Western blotting

B1: Dvl-1 (protein, UniProt O14640 1-695)
chain: MAETKIIYHMDEEETPYLVKLPVAPERVTLADFKNVLSNRPVHAYKFFFKSMDQDFGVVKEEIFDDNAKLPCFNGRVVSWLVLAEGAHSDAGSQGTDSHTDLPPPLERTGGIGDSRPPSFHPNVASSRDGMDNETGTESMVSHRRERARRRNREEAARTNGHPRGDRRRDVGLPPDSASTALSSELESSSFVDSDEDGSTSRLSSSTEQSTSSRLIRKHKRRRRKQRLRQADRASSFSSITDSTMSLNIVTVTLNMERHHFLGISIVGQSNDRGDGGIYIGSIMKGGAVAADGRIEPGDMLLQVNDVNFENMSNDDAVRVLREIVSQTGPISLTVAKCWDPTPRSYFTVPRADPVRPIDPAAWLSHTAALTGALPRYGTSPCSSAVTRTSSSSLTSSVPGAPQLEEAPLTVKSDMSAVVRVMQLPDSGLEIRDRMWLKITIANAVIGADVVDWLYTHVEGFKERREARKYASSLLKHGFLRHTVNKITFSEQCYYVFGDLCSNLATLNLNSGSSGTSDQDTLAPLPHPAAPWPLGQGYPYQYPGPPPCFPPAYQDPGFSYGSGSTGSQQSEGSKSSGSTRSSRRAPGREKERRAAGAGGSGSESDHTAPSGVGSSWRERPAGQLSRGSSPRSQASATAPGLPPPHPTTKAYTVVGGPPGGPPVRELAAVPPELTGSRQSFQKAMGNPCEFFVDIM
- binding: binds
